Measurements reported in patent publication KR20220022226A.
These are yes or no findings as the source states them, for the method shown. Some binding calls cover weakened binding; strength is not graded here.

Molecular target: T1, IL-33 (human) (UniProt O95760)
T1 sequence: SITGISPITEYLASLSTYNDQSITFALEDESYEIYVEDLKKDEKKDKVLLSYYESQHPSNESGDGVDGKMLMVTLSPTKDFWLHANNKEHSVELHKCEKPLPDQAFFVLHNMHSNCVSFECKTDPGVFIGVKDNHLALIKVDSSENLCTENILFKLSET
Experiment: immunoblot, C2_2E12 as primary antibody, anti-HA-HRP as secondary

- binding: binds
B1: C2_2E12 (scFv)
scFv: EVQLLESGGGLVQPGGSLRLSCAASGFTFSSYYMSWVRQAPGKGLEWVSAISPGSSNKYYADSVKGRFTISRDNSKNTLYLQMNSLRAEDTAVYYCARLTLSFDYWGQGTPVTVSSGGGGSGGGGSGGGGSQSVLTQPPSASGTPGQRVTISCSGSSSNIGSNDVSWYQQLPGTAPKLLIYADSKRPSGVPDRFSGSKSGTSASLAISGLRSEDEADYYCASWDSSLSAYVFGGGTKLTVLG
